# These are yes or no findings as the source states them, for the method shown. Binding seen in cells or lysates may run through a third protein. Some binding calls cover weakened binding; strength is not graded here. Where a sequence is shown, tags or fusion partners need not be part of it.
# T1: sfGFP-Vps55 (yeast) (UniProt P47111)
# T1 sequence: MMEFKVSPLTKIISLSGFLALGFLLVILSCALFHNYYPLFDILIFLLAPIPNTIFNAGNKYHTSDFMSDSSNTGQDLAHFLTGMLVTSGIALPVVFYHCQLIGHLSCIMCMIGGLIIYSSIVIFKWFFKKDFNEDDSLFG
# T2: Tms1-13myc (yeast) (UniProt Q12116)
# T2 sequence: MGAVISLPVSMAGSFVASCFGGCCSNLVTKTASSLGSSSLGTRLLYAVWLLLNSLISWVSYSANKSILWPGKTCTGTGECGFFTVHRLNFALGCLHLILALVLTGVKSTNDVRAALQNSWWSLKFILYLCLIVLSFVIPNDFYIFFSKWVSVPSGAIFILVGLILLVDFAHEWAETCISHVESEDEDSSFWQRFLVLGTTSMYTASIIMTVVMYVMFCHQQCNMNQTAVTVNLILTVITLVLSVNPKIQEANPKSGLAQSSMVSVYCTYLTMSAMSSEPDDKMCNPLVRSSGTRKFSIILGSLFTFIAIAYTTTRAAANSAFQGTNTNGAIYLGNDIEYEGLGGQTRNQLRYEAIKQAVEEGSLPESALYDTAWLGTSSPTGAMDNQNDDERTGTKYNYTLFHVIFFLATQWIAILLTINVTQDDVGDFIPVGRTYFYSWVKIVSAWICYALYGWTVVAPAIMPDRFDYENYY
# B1: Vps24 (protein, UniProt P36095 1-224)
# chain: MDYIKKAIWGPDPKEQQRRIRSVLRKNGRNIEKSLRELTVLQNKTQQLIKKSAKKNDVRTVRLYAKELYQINKQYDRMYTSRAQLDSVRMKIDEAIRMNTLSNQMADSAGLMREVNSLVRLPQLRNTMIELEKELMKSGIISEMVDDTMESVGDVGEEMDEAVDEEVNKIVEQYTNEKFKNVDQVPTVELAANEEEQEIPDEKVDEEADRMVNEMRERLRALQN
# B2: Mos10 (protein, UniProt Q03390 1-229)
# chain: MNRIFGYGNKKSHDQLLQESNQSMNQAQQSLSNRISQLDTQIAQLNFQLQNIQKNLQRSNNKQPSLRKQALKILNKRKQLENMKDSLDSQSWSMTQAQLTNDNLQNTMITINALKQTNNAMKAQYGKINIDKLQDMQDEMLDLIEQGDELQEVLAMNNNSGELDDISDAELDAELDALAQEDFTLPTSENSLGNDMPSYLLGANAPPAFIDEEPNLDTEDKNKALESAQ
# B3: Snf7 (protein, UniProt P39929 1-240)
# chain: MWSSLFGWTSSNAKNKESPTKAIVRLREHINLLSKKQSHLRTQITNQENEARIFLTKGNKVMAKNALKKKKTIEQLLSKVEGTMESMEQQLFSIESANLNLETMRAMQEGAKAMKTIHSGLDIDKVDETMDEIREQVELGDEISDAISRPLITGANEVDEDELDEELDMLAQENANQETSKIVNNNVNAAPISENKVSLPSVPSNKIKQSENSVKDGEEEEDEEDEDEKALRELQAEMGL
# B4: Vps2 (protein, UniProt P36108 1-232)
# chain: MSLFEWVFGKNVTPQERLKKNQRALERTQRELEREKRKLELQDKKLVSEIKKSAKNGQVAAAKVQAKDLVRTRNYIQKFDNMKAQLQAISLRIQAVRSSDQMTRSMSEATGLLAGMNRTMNLPQLQRISMEFEKQSDLMGQRQEFMDEAIDNVMGDEVDEDEEADEIVNKVLDEIGVDLNSQLQSTPQNLVSNAPIAETAMGIPEPIGAGSEFHGNPDDDLQARLNTLKKQT
# B5: Did2 (protein, UniProt P69771 1-204)
# chain: MSRNSAAGLENTLFQLKFTSKQLQKQANKASKEEKQETNKLKRALNENEDISRIYASNAIRKKNERLQLLKLASRVDSVASRVQTAVTMRQVSASMGQVCKGMDKALQNMNLQQITMIMDKFEQQFEDLDTSVNVYEDMGVNSDAMLVDNDKVDELMSKVADENGMELKQSAKLDNVPEIKAKEVNVDDEKEDKLAQRLRALRG
# Target: T1, sfGFP-Vps55 (yeast)
# Assay: co-IP
row,binding,Binder
1,binds,B1
2,binds weakly,B2
3,binds,B3
4,binds,B4
5,binds,B5

# Target: T2, Tms1-13myc (yeast)
# Assay: co-IP
row,binding,Binder
1,binds weakly,B1
2,binds weakly,B2
3,binds weakly,B3
4,binds,B4
5,binds,B5
